Source: paper PMC9697976, “Giardia lamblia G6PD::6PGL Fused Protein Inhibitors Decrease Trophozoite Viability: A New Alternative against Giardiasis” (International Journal of Molecular Sciences, 2022)

Key:
Set-up in all cases: species or system Giardia lamblia
G6PD::6PGL protein [1] = test: Intrinsic fluorescence assay of G6PD::6PGL; settings: compound at IC50 concentration, 0.1 mg/mL protein, 2 h, 37 °C; for Maximum intrinsic fluorescence intensity: compound-free protein 874 a.u.
GlG6PD::6PGL protein = test: Far-UV circular dichroism of G6PD::6PGL with compounds; settings: compound at IC50 concentration, 0.4 mg/mL protein, 2 h, 37 °C
G6PD::6PGL protein [2] = test: Extrinsic fluorescence (ANS) assay of G6PD::6PGL; settings: compound at IC50 concentration, 0.1 mg/mL protein, 2 h, 37 °C

O=C(Nc1ccc([N+](=O)[O-])cc1)Nc1nc([N+](=O)[O-])cs1 [CNZ-8]
Loss of intrinsic fluorescence regarding compound-free enzyme (G6PD::6PGL protein [1]): 67% | Maximum intrinsic fluorescence intensity (G6PD::6PGL protein [1]): 276 a.u. | Loss of secondary structure (CD) with respect to compound-free protein (GlG6PD::6PGL protein): 70% | Decrease in ANS fluorescence intensity regarding compound-free enzyme (G6PD::6PGL protein [2]): 56% | Extrinsic (ANS) fluorescence intensity (G6PD::6PGL protein [2]): 155 a.u.

CCCCCC(=O)Nc1nc([N+](=O)[O-])cs1 [FLP-2]
Loss of intrinsic fluorescence regarding compound-free enzyme (G6PD::6PGL protein [1]): 80% | Maximum intrinsic fluorescence intensity (G6PD::6PGL protein [1]): 171 a.u. | Loss of secondary structure (CD) with respect to compound-free protein (GlG6PD::6PGL protein): around 80% | Decrease in ANS fluorescence intensity regarding compound-free enzyme (G6PD::6PGL protein [2]): 56% | Extrinsic (ANS) fluorescence intensity (G6PD::6PGL protein [2]): 155 a.u.

CCCCOc1ccc(NC(=O)Nc2nc([N+](=O)[O-])cs2)cc1 [CNZ-7]
Loss of intrinsic fluorescence regarding compound-free enzyme (G6PD::6PGL protein [1]): 67% | Maximum intrinsic fluorescence intensity (G6PD::6PGL protein [1]): 276 a.u. | Loss of secondary structure (CD) with respect to compound-free protein (GlG6PD::6PGL protein): around 80% | Decrease in ANS fluorescence intensity regarding compound-free enzyme (G6PD::6PGL protein [2]): 85% | Extrinsic (ANS) fluorescence intensity (G6PD::6PGL protein [2]): 52 a.u.

O=C1NC(=O)C(=Cc2ccc(OCc3ccccc3)cc2)C(=O)N1 [CMC-1]
Loss of intrinsic fluorescence regarding compound-free enzyme (G6PD::6PGL protein [1]): 20% | Maximum intrinsic fluorescence intensity (G6PD::6PGL protein [1]): 695 a.u. | Loss of secondary structure (CD) with respect to compound-free protein (GlG6PD::6PGL protein): 70%
